Several values for one entry are separate records, joined by “and”; a condition that tells them apart may be missing. Identical values can stand only once. This continues a long series; more values of the same kind are listed elsewhere.
System: serum uric acid
Assay: Multi-dose Phase I clinical trial, serum uric acid (sUA), once daily for 10 days
Format: in vivo, human
Conditions: group 8, 5 mg once daily for 10 days, individual subjects 4-10
Description: A Phase 1, Randomized, Double-Blind, Placebo-Controlled Study to Evaluate Safety, Tolerability, Pharmacokinetics and Preliminary Food Effect of Multiple Rising Doses of a URAT1 Inhibitor, in Healthy Adult Male Volunteers.
Fasted subjects receive oral doses of active or placebo, once daily, for 10 days, at the following doses:
36 subjects in 3 dose groups, 12 subjects/group, are randomized […] to receive active (9/group) or placebo ([…]). All study procedures are the same regardless of whether subject receives active or placebo. Total duration of subject participation, including screening period, is ˜2-4 weeks, and the total volume of blood collected from each subject during the entire study <500 mL, (less than typically collected during a volunteer blood donation).
5 mg, active and placebo, tablets packaged in 35 count HDPE bottles, stored at controlled room temperature (15-30° C.). Placebo tablets are designed to match the active tablets—identical size, form, taste, and color, and containing the same excipients. 1 mg doses were administered as oral solutions.
Subjects dosed in the morning of Days 1-10 with ˜240 mL of room temp water.
Urine, serum and plasma samples collected periodically
PD samples frozen (−20° C.) and stored; all samples from a given subject assayed in a single analytical run.

## CC(C)(Sc1ccncc1-c1ccc(C#N)c2ccccc12)C(=O)O [2-((3-(4-cyanonaphthalen-1-yl)pyridin-4-yl)thio)-2-methylpropanoic acid]
Time 102
  % sUA change (from baseline): −30.2% and −36.9% and −43.1% and −36.7% and −27.6% and −44.6% and −45.5%
  Absolute sUA concentration: 3.7 mg/dL (2×) and 4.1 mg/dL and 3.8 mg/dL and 4.2 mg/dL and 3.1 mg/dL and 3.0 mg/dL
Time 108
  % sUA change (from baseline): −35.8% and −32.3% and −41.5% and −43.3% and −31.0% and −48.2% and −49.1%
  Absolute sUA concentration: 3.4 mg/dL (2×) and 4.4 mg/dL and 3.8 mg/dL and 4.0 mg/dL and 2.9 mg/dL and 2.8 mg/dL
Time 120
  % sUA change (from baseline): −30.2% and −24.6% and −32.3% and −28.3% and −20.7% and −30.4% and −43.6%
  Absolute sUA concentration: 3.7 mg/dL and 4.9 mg/dL and 4.4 mg/dL and 4.3 mg/dL and 4.6 mg/dL and 3.9 mg/dL and 3.1 mg/dL
Time 144
  % sUA change (from baseline): −37.7% and −32.3% and −38.5% and −38.3% and −24.1% and −35.7% and −40.0%
  Absolute sUA concentration: 3.3 mg/dL (2×) and 4.4 mg/dL (2×) and 4.0 mg/dL and 3.7 mg/dL and 3.6 mg/dL
Time 168
  % sUA change (from baseline): −45.3% and −36.9% and −44.6% and −38.3% and −24.1% and −37.5% and −40.0%
  Absolute sUA concentration: 2.9 mg/dL and 4.1 mg/dL and 3.6 mg/dL and 3.7 mg/dL and 4.4 mg/dL and 3.5 mg/dL and 3.3 mg/dL
Time 192
  % sUA change (from baseline): −39.6% and −32.3% and −41.5% and −40.0% and −17.2% and −35.7% and −43.6%
  Absolute sUA concentration: 3.2 mg/dL and 4.4 mg/dL and 3.8 mg/dL and 3.6 mg/dL (2×) and 4.8 mg/dL and 3.1 mg/dL
Time 216
  % sUA change (from baseline): −43.4% and −32.3% (2×) and −35.0% and −24.1% and −41.1% and −25.5%
  Absolute sUA concentration: 3.0 mg/dL and 4.4 mg/dL (3×) and 3.9 mg/dL and 3.3 mg/dL and 4.1 mg/dL
Time 222 (post dosing)
  % sUA change (from baseline): −41.5% and −38.5% and −40.0% and −38.3% and −32.8% and −44.6% and −41.8%
  Absolute sUA concentration: 3.1 mg/dL (2×) and 4.0 mg/dL and 3.9 mg/dL (2×) and 3.7 mg/dL and 3.2 mg/dL
Time 228 (post dosing)
  % sUA change (from baseline): −47.2% and −36.9% and −40.0% and −43.3% and −36.2% and −44.6% and −41.8%
  Absolute sUA concentration: 2.8 mg/dL and 4.1 mg/dL and 3.9 mg/dL and 3.4 mg/dL and 3.7 mg/dL and 3.1 mg/dL and 3.2 mg/dL
Time 240 (post dosing)
  % sUA change (from baseline): −39.6% and −27.7% and −30.8% and −33.3% and −25.9% and −26.8% and −34.5%
  Absolute sUA concentration: 3.2 mg/dL and 4.7 mg/dL and 4.5 mg/dL and 4.0 mg/dL and 4.3 mg/dL and 4.1 mg/dL and 3.6 mg/dL
Time 246 (post dosing)
  % sUA change (from baseline): −43.4% and −32.3% and −38.5% and −36.7% and −29.3% and −30.4% and −40.0%
  Absolute sUA concentration: 3.0 mg/dL and 4.4 mg/dL and 4.0 mg/dL and 3.8 mg/dL and 4.1 mg/dL and 3.9 mg/dL and 3.3 mg/dL
Time 252 (post dosing)
  % sUA change (from baseline): −45.3% and −35.4% and −43.1% and −45.0% and −31.0% and −32.1% and −41.8%
  Absolute sUA concentration: 2.9 mg/dL and 4.2 mg/dL and 3.7 mg/dL and 3.3 mg/dL and 4.0 mg/dL and 3.8 mg/dL and 3.2 mg/dL
Time 264 (post dosing)
  % sUA change (from baseline): −37.7% and −32.3% and −38.5% and −33.3% and −27.6% and −26.8% and −27.3%
  Absolute sUA concentration: 3.3 mg/dL and 4.4 mg/dL and 4.0 mg/dL (3×) and 4.2 mg/dL and 4.1 mg/dL
Time 270 (post dosing)
  % sUA change (from baseline): −22.6% and −23.1% and −32.3% and −25.0% and −13.8% and −16.1% and −27.3%
  Absolute sUA concentration: 4.1 mg/dL and 5.0 mg/dL (2×) and 4.4 mg/dL and 4.5 mg/dL and 4.7 mg/dL and 4.0 mg/dL
Time 288 (post dosing)
  % sUA change (from baseline): −28.3% and −24.6% and −33.8% and −31.7% and −17.2% and −14.3% and −23.6%
  Absolute sUA concentration: 3.8 mg/dL and 4.9 mg/dL and 4.3 mg/dL and 4.1 mg/dL and 4.8 mg/dL (2×) and 4.2 mg/dL
Time 312 (post dosing)
  % sUA change (from baseline): −13.2% and −13.8% and −27.7% and −18.3% and −5.2% and −7.1% and −10.9%
  Absolute sUA concentration: 4.6 mg/dL and 5.6 mg/dL and 4.7 mg/dL and 4.9 mg/dL (2×) and 5.5 mg/dL and 5.2 mg/dL
